Results published in PMC4398322, “Snake neurotoxin α-bungarotoxin is an antagonist at native GABAA receptors” (Neuropharmacology, 2015).

Test system: native hippocampal GABAARs
Format: cell-based, rat
Details: read-out: GABA EC50
Experimental: Dissociated hippocampal neurons were prepared from embryonic day 18 rat pups as described ([Hannan et al., 2012]). Briefly, hippocampi were dissected in ice-cold Hank's Balanced Salt Solution (HBSS) (Ca^2+/Mg^2+ free) before enzymatic dissociation in 0.1% (w/v) trypsin at 37 °C for 10 min followed by serial washes in pre-warmed HBSS to remove trypsin prior to trituration. Cells were mechanically dissociated using fire-polished glass Pasteur pipettes in plating medium composed of minimal essential medium (MEM) supplemented with 5% (v/v) fetal calf serum (FCS), 5% (v/v) horse serum, penicillin-G and streptomycin (200 units/ml and 200 μg/ml), 2 mM L-glutamine and 35 mM glucose. Cells were plated at a density of 10^6 per ml in plating medium on glass cover-slips previously coated with poly-D-lysine. […]
Patch electrodes had resistances of 4–5 MΩ and were filled with an internal solution containing (mM): 120 CsCl 1 MgCl2, 11 EGTA, 30 KOH, 10 HEPES, 1 CaCl2, and 2 K2ATP; pH – 7.2. […] Neuronal membrane currents were similarly recorded at a holding potential of −60 mV.
Spontaneous inhibitory postsynaptic currents (IPSCs) were recorded from dentate gyrus granule cells (DGGCs) with the same internal solution as above. Cells were voltage clamped at −60 mV and IPSCs were recorded using 5 kHz filtering with optimal series resistance and whole-cell capacitance compensation.

`NCCCC(=O)O` [GABA, γ-aminobutyric acid] was tested, and the EC50 was 1230 ± 40 nM.
